Experimental data: PubChem BioAssay AID1259254 (NCATS, 2017)

Assay: 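Genome-wide screen for genes that prevent DNA re-replication in cancer cells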 (primary screen)
Cells: human HCT116 colorectal cancer cells
Knock-down reagent: single siRNA against human genes
Timing: 3 days
Measurement: 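Nuclei stained with Hoechst and imaged; cell-cycle phase assigned by DNA content; G2 share scaled per plate, non-targeting siRNA 0%, GMNN siRNA 100%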
Direction: G2 robust z-score and G2 cells, % of GMNN control: higher = more G2 cells, more excess DNA replication; raw share of cells in G2: higher = larger share of cells with G2 DNA content
Hit rule: 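Active siRNAs have a G2 robust z of 5 or more median absolute deviations over the median, which in these data means about 38% or higher of GMNN control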
The deposit covers about 59,000 reagents; shown is a random part of them. Of all reagents, about 1,550 (2.6%) got an active call. 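G2 share is only a proxy for re-replication; each gene was hit by three separate siRNAs, and active genes were retested.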 The raw values are shown without normalisation. Unmarked entries are inactive. Reagents against one gene are numbered here. Not given: the amount of reagent.

| G2 robust z-score | G2 cells, % of GMNN control | raw share of cells in G2 (%) | gene | siRNA no. |
| --- | --- | --- | --- | --- |
| -1.03 | -4.3 | 2.53 | SRPRA | 1 |
| -0.024 | 2.8 | 6.62 | SRPRA | 2 |
| -1.23 | -5.66 | 2.61 | SRPRA | 3 |
| 0.229 | 4.58 | 6.03 | CEACAM21 | 1 |
| 0.222 | 4.53 | 4.42 | CEACAM21 | 2 |
| 0.388 | 5.7 | 4.73 | CEACAM21 | 3 |
| 0.261 | 4.8 | 7.56 | SLC52A2 | 1 |
| 1.87 | 16.1 | 10.2 | SLC52A2 | 2 |
| -1.19 | -5.37 | 1.62 | SLC52A2 | 3 |
| 1.61 | 14.3 | 9.3 | ASB3 | 1 |
| -0.183 | 1.68 | 5.18 | ASB3 | 2 |
| 4.21 | 32.6 | 13.5 | ASB3 | 3 |
| 0.846 | 8.92 | 8.15 | TMEM254 | 1 |
| 1.85 | 16 | 11.3 | TMEM254 | 2 |
| -1.21 | -5.57 | 0.854 | TMEM254 | 3 |
| 1.94 | 16.6 | 10.4 | CHODL | 1 |
| 0.693 | 7.84 | 5.59 | CHODL | 2 |
| -0.351 | 0.498 | 2.76 | CHODL | 3 |
| 0.264 | 4.83 | 4.57 | CSAG2 | 1 |
| 0.00843 | 3.03 | 4.75 | CSAG2 | 2 |
| 4.08 | 31.6 | 15.5 | CSAG2 | 3 |
| -0.00545 | 2.93 | 6.49 | NMT1 | 1 |
| 0.068 | 3.45 | 4.33 | NMT1 | 2 |
| -0.275 | 1.03 | 5.88 | NMT1 | 3 |
| -0.518 | -0.677 | 3.3 | NTN1 | 1 |
| 0.255 | 4.76 | 8.11 | NTN1 | 2 |
| -0.473 | -0.36 | 3.19 | NTN1 | 3 |
| -0.725 | -2.14 | 4.96 | RORC | 1 |
| 2.11 | 17.8 | 10.6 | RORC | 2 |
| -1.44 | -7.15 | 1.59 | RORC | 3 |
| -1.57 | -8.05 | 0.175 | C22orf46P | 1 |
| 1.21 | 11.4 | 9.2 | C22orf46P | 2 |
| 1.24 | 11.7 | 9.41 | C22orf46P | 3 |
| -0.547 | -0.88 | 4.08 | ATF7IP2 | 1 |
| 2.16 | 18.2 | 12.3 | ATF7IP2 | 2 |
| -0.0955 | 2.3 | 3 | ATF7IP2 | 3 |
| -0.689 | -1.88 | 3.2 | SULT1C5P | 1 |
| 3.91 | 30.5 | 12.3 | SULT1C5P | 2 |
| 0.131 | 3.89 | 4.42 | SULT1C5P | 3 |
| 0.206 | 4.41 | 6.07 | OLFML2B | 1 |
| -0.381 | 0.29 | 4.07 | OLFML2B | 2 |
| -0.145 | 1.95 | 3.98 | OLFML2B | 3 |
| 2.65 | 21.6 | 10.4 | ZNF280D | 1 |
| -0.904 | -3.39 | 4.38 | ZNF280D | 2 |
| -0.57 | -1.04 | 3.31 | ZNF280D | 3 |
| 0.386 | 5.68 | 7.3 | FAH | 1 |
| 3.08 | 24.7 | 14.6 | FAH | 2 |
| 1.48 | 13.4 | 8.42 | FAH | 3 |
| -0.649 | -1.6 | 3.29 | ANKRD35 | 1 |
| 0.383 | 5.66 | 4.66 | ANKRD35 | 2 |
| 0.487 | 6.4 | 5.3 | ANKRD35 | 3 |
| -1.54 | -7.87 | 2.15 | LMNB2 | 1 |
| 2.26 | 18.9 | 11 | LMNB2 | 2 |
| 0.0141 | 3.07 | 5.92 | LMNB2 | 3 |
| -0.463 | -0.287 | 3.35 | SREBF2 | 1 |
| 4.87 | 37.3 | 22.3 | SREBF2 | 2 |
| -0.611 | -1.33 | 2.63 | SREBF2 | 3 |
| 0.106 | 3.71 | 7.17 | BDKRB1 | 1 |
| -0.0329 | 2.74 | 5.47 | BDKRB1 | 2 |
| 4.59 | 35.3 | 14.1 | BDKRB1 | 3 |
| 1.02 | 10.1 | 9.87 | SCG2 | 1 |
| 0.13 | 3.88 | 5.75 | SCG2 | 2 |
| -1.14 | -5.07 | 2.38 | SCG2 | 3 |
| 4.45 | 34.3 | 15.9 | MAMDC4 | 1 |
| 0.148 | 4.01 | 4.3 | MAMDC4 | 2 |
| 3.87 | 30.2 | 12.3 | MAMDC4 | 3 |
| 1.58 | 14.1 | 8.82 | KRTAP6-3 | 1 |
| 0.0264 | 3.15 | 4.64 | KRTAP6-3 | 2 |
| 2.28 | 19 | 11.8 | KRTAP6-3 | 3 |

Quoted from above for reference:
| G2 robust z-score | G2 cells, % of GMNN control | raw share of cells in G2 (%) | gene | siRNA no. |
| --- | --- | --- | --- | --- |
| -0.518 | -0.677 | 3.3 | NTN1 | 1 |
| 0.255 | 4.76 | 8.11 | NTN1 | 2 |
| -0.473 | -0.36 | 3.19 | NTN1 | 3 |
| -0.725 | -2.14 | 4.96 | RORC | 1 |
| 2.11 | 17.8 | 10.6 | RORC | 2 |
| -1.44 | -7.15 | 1.59 | RORC | 3 |
